Assay [1] concerns the target wild type glucocorticoid receptor (GR), full length (UniProt P06536). The experiment in a line: GST pulldown of [35S]methionine-labeled in vitro translated GR, autoradiography (FIG. 7B).
The target of a further assay is GAL/TIF2.4 (human). The experiment in a line: mammalian two-hybrid in CV-1 cells, pFRLuc reporter (FIG. 2B).
In a further assay the target is GST/TIF2.4 (human) (UniProt Q15596). The experiment in a line: GST pulldown of [35S]methionine-labeled in vitro translated STAMP fragment, autoradiography (FIG. 7A).
Assay [2] has as its target wild type glucocorticoid receptor (GR), full length (UniProt P06536). The experiment in a line: anti-Flag co-immunoprecipitation from Cos-7 cells cotransfected with Flag/STAMP, HA/GRIP1 and GR, ±1 µM Dex; Western blot (FIG. 7C).
The target in the next assay is HA/GRIP1 (mouse) (UniProt Q61026). The experiment in a line: anti-Flag co-immunoprecipitation from Cos-7 cells cotransfected with Flag/STAMP, HA/GRIP1 and GR; Western blot (FIG. 7C). (Immunoblotting shows a protein as a band on a membrane.)

Chains of the proteins cited; added tags and fusions are not shown. Lines headed by an entry give the natural chain unless they say otherwise; changes in a name come on top. Residues count along the entry.
UniProt P06536: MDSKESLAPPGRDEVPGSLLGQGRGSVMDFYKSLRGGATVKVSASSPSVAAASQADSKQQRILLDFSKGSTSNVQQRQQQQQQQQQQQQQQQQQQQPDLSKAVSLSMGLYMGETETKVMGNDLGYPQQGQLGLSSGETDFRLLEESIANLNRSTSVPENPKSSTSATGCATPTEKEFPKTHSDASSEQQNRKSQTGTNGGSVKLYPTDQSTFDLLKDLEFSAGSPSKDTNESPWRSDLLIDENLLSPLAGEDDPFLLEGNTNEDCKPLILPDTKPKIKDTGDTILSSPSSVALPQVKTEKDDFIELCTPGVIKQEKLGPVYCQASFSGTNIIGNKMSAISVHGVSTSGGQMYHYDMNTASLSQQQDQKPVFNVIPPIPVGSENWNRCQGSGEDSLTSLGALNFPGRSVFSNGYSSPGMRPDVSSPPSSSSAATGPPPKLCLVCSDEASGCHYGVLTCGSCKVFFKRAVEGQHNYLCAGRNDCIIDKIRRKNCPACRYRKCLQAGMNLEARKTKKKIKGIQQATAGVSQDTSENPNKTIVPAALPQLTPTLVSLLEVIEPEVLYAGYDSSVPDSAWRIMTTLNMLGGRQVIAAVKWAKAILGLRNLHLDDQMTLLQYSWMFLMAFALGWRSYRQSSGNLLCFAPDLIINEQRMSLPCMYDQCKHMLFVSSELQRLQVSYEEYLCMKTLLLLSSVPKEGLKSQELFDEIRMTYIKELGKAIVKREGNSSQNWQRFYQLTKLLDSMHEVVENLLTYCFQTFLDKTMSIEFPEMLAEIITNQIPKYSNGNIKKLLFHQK
UniProt Q15596: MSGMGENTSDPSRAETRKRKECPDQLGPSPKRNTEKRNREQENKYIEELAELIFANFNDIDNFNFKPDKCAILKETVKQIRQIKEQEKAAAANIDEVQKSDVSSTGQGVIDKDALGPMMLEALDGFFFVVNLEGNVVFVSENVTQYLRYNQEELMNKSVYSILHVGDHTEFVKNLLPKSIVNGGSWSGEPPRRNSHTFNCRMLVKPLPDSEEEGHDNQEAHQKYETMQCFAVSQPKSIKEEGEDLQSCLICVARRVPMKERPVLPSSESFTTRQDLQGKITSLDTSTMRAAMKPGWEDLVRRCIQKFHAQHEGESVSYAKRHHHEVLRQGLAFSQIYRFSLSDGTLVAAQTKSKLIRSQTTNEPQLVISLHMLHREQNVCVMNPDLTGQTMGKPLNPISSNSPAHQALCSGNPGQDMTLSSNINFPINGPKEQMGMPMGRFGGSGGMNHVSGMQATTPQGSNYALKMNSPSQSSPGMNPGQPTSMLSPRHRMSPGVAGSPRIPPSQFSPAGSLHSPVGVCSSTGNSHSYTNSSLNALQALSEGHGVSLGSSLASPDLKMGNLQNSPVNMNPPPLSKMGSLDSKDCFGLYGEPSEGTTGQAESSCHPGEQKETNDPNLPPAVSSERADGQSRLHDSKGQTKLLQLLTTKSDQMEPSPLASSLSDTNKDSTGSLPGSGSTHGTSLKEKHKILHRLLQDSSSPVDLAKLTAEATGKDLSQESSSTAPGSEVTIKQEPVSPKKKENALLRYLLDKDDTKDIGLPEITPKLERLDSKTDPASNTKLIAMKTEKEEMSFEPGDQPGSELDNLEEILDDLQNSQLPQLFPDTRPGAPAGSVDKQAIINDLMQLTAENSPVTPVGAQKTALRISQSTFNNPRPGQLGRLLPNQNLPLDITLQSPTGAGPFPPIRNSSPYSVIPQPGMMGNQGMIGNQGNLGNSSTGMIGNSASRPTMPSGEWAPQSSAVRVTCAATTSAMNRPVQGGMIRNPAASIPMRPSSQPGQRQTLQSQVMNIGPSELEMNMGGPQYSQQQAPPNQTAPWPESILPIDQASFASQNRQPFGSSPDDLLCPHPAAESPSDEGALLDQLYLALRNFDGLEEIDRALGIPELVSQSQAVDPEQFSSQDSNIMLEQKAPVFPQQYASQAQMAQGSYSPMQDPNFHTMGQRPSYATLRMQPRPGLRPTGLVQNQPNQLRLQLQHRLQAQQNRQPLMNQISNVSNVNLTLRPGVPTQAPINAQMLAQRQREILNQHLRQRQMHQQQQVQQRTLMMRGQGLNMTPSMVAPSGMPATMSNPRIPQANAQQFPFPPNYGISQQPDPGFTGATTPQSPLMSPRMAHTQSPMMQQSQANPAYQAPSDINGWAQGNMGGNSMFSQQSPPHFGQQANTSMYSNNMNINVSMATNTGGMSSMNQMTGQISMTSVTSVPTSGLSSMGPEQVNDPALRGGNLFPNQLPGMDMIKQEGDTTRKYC
UniProt Q61026, residues 5-1462: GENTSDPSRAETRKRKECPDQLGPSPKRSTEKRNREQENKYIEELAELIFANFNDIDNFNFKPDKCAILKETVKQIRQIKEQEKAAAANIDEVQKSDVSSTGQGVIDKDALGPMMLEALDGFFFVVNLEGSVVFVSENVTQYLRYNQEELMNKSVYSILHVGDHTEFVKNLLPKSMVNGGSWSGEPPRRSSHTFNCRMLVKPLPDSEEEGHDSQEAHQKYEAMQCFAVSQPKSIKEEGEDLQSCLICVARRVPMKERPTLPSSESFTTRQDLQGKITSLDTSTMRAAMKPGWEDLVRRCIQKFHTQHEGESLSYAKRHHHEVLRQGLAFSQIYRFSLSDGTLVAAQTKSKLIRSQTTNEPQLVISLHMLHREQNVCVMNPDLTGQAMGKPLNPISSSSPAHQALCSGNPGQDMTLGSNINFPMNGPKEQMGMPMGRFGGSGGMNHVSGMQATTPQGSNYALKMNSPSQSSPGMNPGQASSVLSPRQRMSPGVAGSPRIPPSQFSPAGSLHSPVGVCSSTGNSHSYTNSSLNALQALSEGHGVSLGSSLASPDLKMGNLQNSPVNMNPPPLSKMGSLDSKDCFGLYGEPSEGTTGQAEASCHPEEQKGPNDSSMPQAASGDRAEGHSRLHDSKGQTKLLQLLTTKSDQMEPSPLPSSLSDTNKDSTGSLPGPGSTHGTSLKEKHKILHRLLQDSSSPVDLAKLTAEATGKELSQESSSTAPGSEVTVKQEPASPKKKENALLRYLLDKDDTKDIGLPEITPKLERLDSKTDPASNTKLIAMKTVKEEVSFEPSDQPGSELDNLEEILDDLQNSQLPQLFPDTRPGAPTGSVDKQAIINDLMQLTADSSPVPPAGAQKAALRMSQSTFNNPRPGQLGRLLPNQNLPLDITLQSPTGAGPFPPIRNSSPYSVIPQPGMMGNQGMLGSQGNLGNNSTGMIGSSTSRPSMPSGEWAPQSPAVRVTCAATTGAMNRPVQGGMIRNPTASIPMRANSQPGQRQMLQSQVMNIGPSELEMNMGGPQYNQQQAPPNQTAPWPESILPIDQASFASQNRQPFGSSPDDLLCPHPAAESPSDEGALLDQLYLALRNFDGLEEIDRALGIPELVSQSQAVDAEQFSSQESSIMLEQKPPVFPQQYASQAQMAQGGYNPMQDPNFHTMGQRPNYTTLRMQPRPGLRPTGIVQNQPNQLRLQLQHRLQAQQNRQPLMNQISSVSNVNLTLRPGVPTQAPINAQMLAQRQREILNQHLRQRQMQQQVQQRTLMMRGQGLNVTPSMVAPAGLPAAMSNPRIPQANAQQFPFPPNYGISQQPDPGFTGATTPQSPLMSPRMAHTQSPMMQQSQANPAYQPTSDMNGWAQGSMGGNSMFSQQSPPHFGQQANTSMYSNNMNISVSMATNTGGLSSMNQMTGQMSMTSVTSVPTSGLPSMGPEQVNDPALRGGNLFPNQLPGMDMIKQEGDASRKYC

Results are given in words; binding and its absence hold for the method and conditions named. For some assays here: Binding seen in cells or lysates may run through a third protein. Some binding calls cover weakened binding; strength is not graded here. For some assays here: Where a sequence is shown, tags or fusion partners need not be part of it.

B1: GST/STAMP(956C) (protein, not shown: a dimerising Fc or GST)
chain: LPRCRSGSHTIGPFSSFQSAAHIYSQKLSRPSSAKAGSCYLNKHHSGIAKTQKEGEDASLYSKRYNQSMVTAELQRLAEKQAARQYSPSSHINLLTQQVTNLNLATGIINRSSASAPPTLRPIISPSGPTWSTQSDPQAPENHSSSPGSRSLQTGGFAWEGEVENNVYSQATGVVPQHKYHPTAGSYQLQFALQQLEQQKLQSRQLLDQSRARHQAIFGSQTLPNSNLWTMNNGAGCRISSATASGQKPTTLPQKVVPPPSSCASLVPKPPPNHEQVLRRATSQKASKGSSAEGQLNGLQSSLNPAASVPITSSTDPAHTKI
In the case of B1, in assay [1], the binding entry is “binds”.

B2: VP16/6-6CL1 (protein)
chain: ENTPKENSMKVREWNNKGGHCCKLETQELEPKFNLMQILQDNGNLSKMQARIAFSAYLQHVQIRLMKDSGGQTFSASWAAKEDEQMELVVRFLKRASNNLQHSLRMVLPSRRLALLERRRILAHQLGDFIIVYNKETEQMAEKKSKKKVEEEEEDGVNMENFQEFIRQASEAELEEVLTFYTQKNKSASVFLGTHSKISKNNNNYSDSGAKG
Take B2: the binding entry with GAL/TIF2.4 (human) is reported as “binds”.

B3: STAMP fragment of amino acids 623-834, in vitro translated (protein)
chain: ENTPKENSMKVREWNNKGGHCCKLETQELEPKFNLMQILQDNGNLSKMQARIAFSAYLQHVQIRLMKDSGGQTFSASWAAKEDEQMELVVRFLKRASNNLQHSLRMVLPSRRLALLERRRILAHQLGDFIIVYNKETEQMAEKKSKKKVEEEEEDGVNMENFQEFIRQASEAELEEVLTFYTQKNKSASVFLGTHSKISKNNNNYSDSGAKG
modifications: [35S]methionine labeled
For B3, in the assay with GST/TIF2.4 (human), the binding result was “binds”.

B4: Flag/STAMP (protein, not shown: small tags and cut ends)
chain: MARDLEETASSSEDEEVISQEDHPCIMWTGGCRRIPVLVFHADAILTKDNNIRVIGERYHLSYKIVRTDSRLVRSILTAHGFHEVHPSSTDYNLMWTGSHLKPFLLRTLSEAQKVNHFPRSYELTRKDRLYKNIIRMQHTHGFKVFHILPQTFLLPAEYAEFCNSYSKDRGPWIVKPVASSRGRGVYLINNPNQISLEENILVSRYINNPLLIDDFKFDVRLYVLVTSYDPLVIYLYEEGLARFATVRYDQGAKNIRNQFMHLTNYSVNKKSGDYVSCDDPEVEDYGNKWSMSAMLRYLKQEGRDTTALMAHVEDLIIKTIISAELAIATACKTFVPHRSSCFELYGFDVLIDSTLKPWLLEVNLSPSLACDAPLDLKIKASMISDMFTVVGFVCQDPAQRASTRPIYPTFESSRRNPFQKPQRCRPLSASDAEMKNLVGSAREKGPGKLGGSVLGLSMEEIKVLRRVKEENDRRGGFIRIFPTSETWEIYGSYLEHKTSMNYMLATRLFQDRMTADGAPELKIESLNSKAKLHAALYERKLLSLEVRKRRRRSSRLRAMRPKYPVITQPAEMNVKTETESEEEEEVALDNEDEEQEASQEESAGFLRENQAKYTPSLTALVENTPKENSMKVREWNNKGGHCCKLETQELEPKFNLMQILQDNGNLSKMQARIAFSAYLQHVQIRLMKDSGGQTFSASWAAKEDEQMELVVRFLKRASNNLQHSLRMVLPSRRLALLERRRILAHQLGDFIIVYNKETEQMAEKKSKKKVEEEEEDGVNMENFQEFIRQASEAELEEVLTFYTQKNKSASVFLGTHSKISKNNNNYSDSGAKGDHPETIMEEVKIKPPKQQQTTEIHSDKLSRFTTSAEKEAKLVYSNSSSGPTATLQKIPNTHLSSVTTSDLSPGPCHHSSLSQIPSAIPSMPHQPTILLNTVSASASPCLHPGAQNIPSPTGLPRCRSGSHTIGPFSSFQSAAHIYSQKLSRPSSAKAGSCYLNKHHSGIAKTQKEGEDASLYSKRYNQSMVTAELQRLAEKQAARQYSPSSHINLLTQQVTNLNLATGIINRSSASAPPTLRPIISPSGPTWSTQSDPQAPENHSSSPGSRSLQTGGFAWEGEVENNVYSQATGVVPQHKYHPTAGSYQLQFALQQLEQQKLQSRQLLDQSRARHQAIFGSQTLPNSNLWTMNNGAGCRISSATASGQKPTTLPQKVVPPPSSCASLVPKPPPNHEQVLRRATSQKASKGSSAEGQLNGLQSSLNPAASVPITSSTDPAHTKI
As to B4, the binding entry (in assay [2]; in the assay with HA/GRIP1 (mouse)) was “binds” throughout.

For the origin of these results see US20070128627A1.
